# For at least one compound, name, drawing or mass did not settle the structure.
# Columns and labels:
# Strain px-2 = test: Oxygen uptake rate, strain px-2; type: cell-based, bacterial strain px-2
# Experimental: (§1) Experiments were conducted to examine the range of compounds degraded by enzymes present in the metabolic pathways of the strains established on meta- and para-xylene, as described in Example 7. […] The compounds listed Table 7 from benzoate through protocatechuate are enzymatic pathway intermediates in the oxidation of aromatic compounds.
# Strain mx-2 = test: Oxygen uptake rate, strain mx-2; type: cell-based, bacterial strain mx-2
# Experimental: as §1
structure (smiles),measurement,setting,value
O=C(O)c1ccc(O)c(O)c1 [Protocatechuate],Oxygen Uptake,Strain px-2,0.00 μmol/min-mg total protein
same,Oxygen Uptake,Strain mx-2,0.32 μmol/min-mg total protein

# From US5954858A, “Bioreactor process for the continuous removal of organic compounds from a vapor phase process stream” (North Carolina State University, priority 1996, dated 1999)
